{"source": "patent US20190145961A1", "about": "“PPAR AGONIST OR LXR AGONIST FOR USE IN THE TREATMENT OF SYSTEMIC LUPUS ERYTHEMATOSUS BY MODULATION OF LAP ACTIVITY” (Washington University, priority 2016, published 2019)", "test_system": "Bone marrow-derived macrophages (BMM) from Rubicon−/− mice", "assay": "IL-10 production by Rubicon−/− bone marrow-derived macrophages co-cultured with apoptotic thymocytes (ELISA)", "type": "cell-based", "conditions": "20 μM; Rubicon-deficient (LAP-deficient) BMM, apoptotic thymocytes 10:1, 18 hours co-culture, supernatant ELISA; versus control treatment (FIG. 1A)", "description": "Bone marrow-derived macrophages (BMM) were generated as previously described from Rubicon−/− mice and wild-type littermates. Macrophages were co-cultured with UV-irradiated apoptotic thymocytes (at a ratio of 10 apoptotic cells:1 macrophage) in the presence or absence of PPARγ agonists Rosiglitazone (ROS, 20 or 60 μM) or Tesaglitazar (TES, 6 or 20 μM). NT indicates no treatment. After 18 hours of co-culture, supernatants were collected and analyzed for IL-10 production via ELISA (FIG. 1A). […] Thus, PPAR agonists can be effective at restoring the LAP phenotype in LAP-deficient cells.\nBone marrow-derived macrophages (BMM) were generated as previously described from Rubicon−/− mice and wild-type littermates. […] NT indicates no treatment. After 18 hours of co-culture, supernatants were collected and analyzed for IL-10 production via ELISA FIG. 1C). […] Thus, LXR agonists can be effective at restoring the LAP phenotype in LAP-deficient cells.\nBone marrow-derived macrophages (BMDMs) were generated from bone marrow progenitors obtained from littermates. Freshly prepared bone marrow cells were cultured in DMEM medium supplemented with 10% heat-inactivated FCS, 2 mM L-glutamine, 10 mM HEPES buffer, 50 μg/ml penicillin, and non-essential amino acids in the presence of 20 ng/ml rmM-CSF (Peprotech) for 6 days. […]", "note": "For at least one compound, name, drawing or mass did not settle the structure.", "data": [{"smiles": "CN(CCOc1ccc(CC2SC(=O)NC2=O)cc1)c1ccccn1", "note": "(stereo not shown) [Rosiglitazone]", "values": [{"measurement": "IL-10 production", "result": "increased IL-10 production"}]}]}
